PubChem BioAssay AID504764, Drosophila RNAi Screening Center – 2011
Assay: 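Genome-wide screen for regulators of Notch-driven gene expression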 (primary screen). Cell system: Drosophila Kc167 cells. Reagents: long dsRNA against Drosophila genes. Time to read-out: about 5 days (4 days dsRNA, then 24 h after transfection). Conditions: transfection of constitutively active membrane-tethered Notch lacking the extracellular domain, read 24 h later. Measurement: 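Firefly luciferase from an E(spl)m3 reporter with active Notch, plus control-promoter and uninduced reporter wells for normalisation; unnormalised counts, duplicate wells a and b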. Scale: induced reporter light, run 1, well a and induced reporter light, run 1, well b: higher = more light from the Notch target reporter with active Notch; control promoter light, run 1, well a and control promoter light, run 1, well b: higher = more light from the viral control promoter (cell number, transfection, viability); uninduced reporter light, run 1, well a: higher = more light from the Notch target reporter without active Notch. Active means: 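Wells with low control signal or poorly matching duplicates excluded; duplicates averaged; per source plate, z beyond ±2 for induced/control log2 ratio or beyond ±1.8 for induced/uninduced marks a hit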. Calls: active = modifier hit (raised or lowered Notch signal); inactive = not a hit.
In all, the deposit lists about 22,000 reagents; shown is a random part of those with a known target gene and a result. Over the whole deposit, 403 (1.9%) were called active. 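Unnormalised raw counts per well; ratio z-scores behind the hit calls and whether each hit raises or lowers signal are not deposited.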 No sequences are given here. Not given: the amount of reagent.

Octalpha2R [DRSC13319]: induced reporter light, run 1, well a = 54485; induced reporter light, run 1, well b = 51610; control promoter light, run 1, well a = 91675; control promoter light, run 1, well b = 1.05e5; uninduced reporter light, run 1, well a = 8615; outcome = active
Octalpha2R [DRSC15314]: induced reporter light, run 1, well a = 1.77e5; induced reporter light, run 1, well b = 1.61e5; control promoter light, run 1, well a = 2.05e5; control promoter light, run 1, well b = 2.07e5; uninduced reporter light, run 1, well a = 12180; outcome = inactive
CG14518 [DRSC14870]: induced reporter light, run 1, well a = 1.79e5; induced reporter light, run 1, well b = 1.39e5; control promoter light, run 1, well a = 2.07e5; control promoter light, run 1, well b = 2.09e5; uninduced reporter light, run 1, well a = 14585; outcome = inactive
CG13958 (retired record) [DRSC02300]: induced reporter light, run 1, well a = 42715; induced reporter light, run 1, well b = 35745; control promoter light, run 1, well a = 68695; control promoter light, run 1, well b = 86845; uninduced reporter light, run 1, well a = 3640; outcome = inactive
mil [DRSC15696]: induced reporter light, run 1, well a = 1.42e5; induced reporter light, run 1, well b = 1.58e5; control promoter light, run 1, well a = 1.79e5; control promoter light, run 1, well b = 1.90e5; uninduced reporter light, run 1, well a = 13715; outcome = inactive
CG10859 [DRSC02110]: induced reporter light, run 1, well a = 1.89e5; induced reporter light, run 1, well b = 1.96e5; control promoter light, run 1, well a = 1.95e5; control promoter light, run 1, well b = 2.13e5; uninduced reporter light, run 1, well a = 17355; outcome = inactive
CG12926 [DRSC06239]: induced reporter light, run 1, well a = 1.66e5; induced reporter light, run 1, well b = 1.24e5; control promoter light, run 1, well a = 1.96e5; control promoter light, run 1, well b = 1.65e5; uninduced reporter light, run 1, well a = 11995; outcome = inactive
CG12926 [DRSC21930]: outcome = inactive
hubl [DRSC06825]: induced reporter light, run 1, well a = 1.59e5; induced reporter light, run 1, well b = 1.60e5; control promoter light, run 1, well a = 1.78e5; control promoter light, run 1, well b = 1.58e5; uninduced reporter light, run 1, well a = 14805; outcome = inactive
CG42249 [DRSC19383]: induced reporter light, run 1, well a = 1.14e5; induced reporter light, run 1, well b = 1.41e5; control promoter light, run 1, well a = 2.08e5; control promoter light, run 1, well b = 2.00e5; uninduced reporter light, run 1, well a = 8960; outcome = inactive
CG42249 [DRSC19826]: induced reporter light, run 1, well a = 1.04e5; induced reporter light, run 1, well b = 90630; control promoter light, run 1, well a = 1.21e5; control promoter light, run 1, well b = 1.16e5; uninduced reporter light, run 1, well a = 6975; outcome = inactive

Active calls, among the entries above:
Octalpha2R [DRSC13319]: induced reporter light, run 1, well a = 54485; induced reporter light, run 1, well b = 51610; control promoter light, run 1, well a = 91675; control promoter light, run 1, well b = 1.05e5; uninduced reporter light, run 1, well a = 8615; outcome = active

Continued:
CG3280 (retired record) [DRSC10356]: induced reporter light, run 1, well a = 1.49e5; induced reporter light, run 1, well b = 1.41e5; control promoter light, run 1, well a = 1.73e5; control promoter light, run 1, well b = 1.48e5; uninduced reporter light, run 1, well a = 9060; outcome = inactive
CG13577 [DRSC04213]: induced reporter light, run 1, well a = 1.81e5; induced reporter light, run 1, well b = 1.75e5; control promoter light, run 1, well a = 1.40e5; control promoter light, run 1, well b = 1.65e5; uninduced reporter light, run 1, well a = 13095; outcome = inactive
Galphaq [DRSC07432]: induced reporter light, run 1, well a = 1.49e5; induced reporter light, run 1, well b = 1.42e5; control promoter light, run 1, well a = 1.58e5; control promoter light, run 1, well b = 1.62e5; uninduced reporter light, run 1, well a = 14225; outcome = inactive
Gr59f [DRSC04499]: induced reporter light, run 1, well a = 2.00e5; induced reporter light, run 1, well b = 1.79e5; control promoter light, run 1, well a = 1.96e5; control promoter light, run 1, well b = 1.71e5; uninduced reporter light, run 1, well a = 11985; outcome = inactive
Prtl99C [DRSC15049]: induced reporter light, run 1, well a = 1.08e5; induced reporter light, run 1, well b = 1.14e5; control promoter light, run 1, well a = 1.72e5; control promoter light, run 1, well b = 1.60e5; uninduced reporter light, run 1, well a = 9015; outcome = inactive
eIF1 [DRSC08520]: induced reporter light, run 1, well a = 1.04e5; induced reporter light, run 1, well b = 1.01e5; control promoter light, run 1, well a = 1.67e5; control promoter light, run 1, well b = 1.18e5; uninduced reporter light, run 1, well a = 5395; outcome = inactive
CG14022 [DRSC02352]: induced reporter light, run 1, well a = 1.28e5; induced reporter light, run 1, well b = 1.10e5; control promoter light, run 1, well a = 1.23e5; control promoter light, run 1, well b = 1.58e5; uninduced reporter light, run 1, well a = 7460; outcome = inactive
